The list is a part of this screen's results and no random one: it is rich in T/C values a quarter to a half above the control, in often repeated tests (any T/C) and in doses without a T/C. Further doses and runs are listed elsewhere. T/C is the treated group as % of the vehicle group. Some entries give survivors of the animals treated and no T/C: the source files T/C as zero there, which appears to mark a toxic dose or a test without result, not a measured value. Some doses without a T/C left all or most animals alive at the check, yet need not have been tolerated: the source hardly ever lists a survival T/C far under the control, and the zero likely stands for such cases as well. Survivors were counted at the toxicity check, usually on the fifth day, unless a day is given; later deaths do not show. Schedule codes are those of the source, read here as Q, the interval in days (D) or hours (H), X, the number of doses. For survival time, this PubChem deposit counts one and a half times the control or more as active, and values a quarter to a half above the control carry no call in these data; other NCI protocols may use other cut-offs. Some entries hold several experiments; their values stand side by side, smallest first. Some T/C values are followed by the survivors on the day toxicity was checked, most often the fifth; without a count, all were alive then.
Test system: BDF1 mice, P388 leukemia ip, median survival T/C
Test: NCI In Vivo Anticancer Drug Screen. Data for tumor model P388 Leukemia (intraperitoneal) in B6D2F1 (BDF1) mice
Details: higher T/C = longer survival
In short: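 In tumour-bearing mice, survival after compound treatment is set against the vehicle group and given as a quotient.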

[1] = T/C endpoint: median survival time, dose: 200.0 mg/kg/injection, schedule: Q01DX009 (ip), vehicle: Klucel (hydroxypropylcellulose) (HPC)
[2] = T/C endpoint: median survival time, dose: 200.0 mg/kg/injection, schedule: Q01DX009 (ip), vehicle: saline with Tween-80
[3] = T/C endpoint: median survival time, dose: 400.0 mg/kg/injection, schedule: Q04DX003 (ip), vehicle: Klucel (hydroxypropylcellulose) (HPC)
[4] = T/C endpoint: median survival time, dose: 200.0 mg/kg/injection, schedule: Q04DX003 (ip), vehicle: saline with Tween-80
[5] = T/C endpoint: median survival time, dose: 200.0 mg/kg/injection, schedule: Q04DX003 (ip), vehicle: Klucel (hydroxypropylcellulose) (HPC)
[6] = T/C endpoint: median survival time, dose: 100.0 mg/kg/injection, schedule: Q01DX009 (ip), vehicle: saline with Tween-80
[7] = T/C endpoint: median survival time, dose: 400.0 mg/kg/injection, schedule: Q04DX003 (ip), vehicle: saline with Tween-80
[8] = T/C endpoint: median survival time, dose: 100.0 mg/kg/injection, schedule: Q01DX009 (ip), vehicle: saline
[9] = T/C endpoint: median survival time, dose: 200.0 mg/kg/injection, schedule: Q01DX009 (ip), vehicle: saline

COc1cc2cc(c1Cl)N(C)C(=O)CC(OC(C)=O)C1(C)OC1C(C)C1CC(O)(NC(=O)O1)C(OC)C=C/C=C(\C)C2 (configuration not stated)
T/C (T/C endpoint: median survival time, dose: 0.1 micrograms/kg/injection, schedule: Q01DX009 (ip), vehicle: saline + alcohol): 135 % of control | T/C (T/C endpoint: median survival time, dose: 3.1 micrograms/kg/injection, schedule: Q01DX009 (ip), vehicle: saline + alcohol): 133 % of control | T/C (T/C endpoint: median survival time, dose: 6.2 micrograms/kg/injection, schedule: Q01DX009 (ip), vehicle: saline + alcohol): 145 % of control | T/C (T/C endpoint: median survival time, dose: 12.5 micrograms/kg/injection, schedule: Q01DX009 (ip), vehicle: saline + alcohol): 140 % of control | survivor count (T/C endpoint: median survival time, dose: 200.0 micrograms/kg/injection, schedule: Q01DX009 (ip), vehicle: saline + alcohol): 1 of 4 | survivor count (T/C endpoint: median survival time, dose: 400.0 micrograms/kg/injection, schedule: Q01DX009 (ip), vehicle: saline + alcohol): 0 of 4

O=C(NCCCCN1CC1)C(=O)NCCCCN1CC1
survivor count (T/C endpoint: median survival time, dose: 50.0 mg/kg/injection, schedule: Q04DX003 (ip), vehicle: Klucel (hydroxypropylcellulose) (HPC)): 4 of 6

C#CCCCOC(=O)Nc1ccccc1
survivor count [1]: 1 of 6

COC(=O)C12OCC34C(CC5=C(C)C(=O)C(O)=CC5(C)C3C(O)C1O)OC(=O)C(OC(=O)c1ccccc1)C24 (configuration not stated)
T/C (T/C endpoint: median survival time, dose: 0.4 mg/kg/injection, schedule: Q01DX009 (ip), vehicle: saline + alcohol): 133 % of control

CCN(CC)C(=O)c1ccc(C(Cl)(Cl)Cl)cc1
T/C [2]: 136 % of control | survivor count [2]: 3 of 3 | T/C [3]: 125 % of control | T/C (T/C endpoint: median survival time, dose: 400.0 mg/kg/injection, schedule: Q04DX003 (ip), vehicle: saline sonified): 127 % of control

O=C(CC(O)(C(F)(F)F)C(F)(F)F)c1ccco1
T/C (T/C endpoint: median survival time, dose: 50.0 mg/kg/injection, schedule: Q01DX009 (ip), vehicle: saline with Tween-80): 133 % of control | survivor count [4]: 3 of 6

Br/C(=N\Nc1nn[nH]n1)c1ccncc1
survivor count (T/C endpoint: median survival time, dose: 400.0 mg/kg/injection, schedule: Q01DX009 (ip), vehicle: saline): 1 of 6

CCN/C(C)=C\C(=O)OCC
T/C (T/C endpoint: median survival time, dose: 178.0 mg/kg/injection, schedule: Q01DX009 (ip), vehicle: Klucel (hydroxypropylcellulose) (HPC)): 148 % of control | T/C (T/C endpoint: median survival time, dose: 400.0 mg/kg/injection, schedule: Q01DX009 (ip), vehicle: Klucel (hydroxypropylcellulose) (HPC)): 133 % of control

Cc1cccc(CSc2ncnc3nc[nH]c23)n1
survivor count [5]: 6 of 6 | survivor count [3]: 6 of 6

CCCCCC1=NC(C)(C(=O)OC)OO1 (configuration not stated)
survivor count [6]: 6 of 6

Cc1ncc([N+](=O)[O-])n1CCSC(N)=O
T/C [7]: 138 % of control

CCOC(=O)C(=O)Cc1sccc1[N+](=O)[O-]
survivor count [5]: 6 of 6

CC(=O)c1ccc(NC(=O)N(CCCl)N=O)cc1
T/C (T/C endpoint: median survival time, dose: 0.66 mg/kg/injection, schedule: Q04DX003 (ip), vehicle: saline): 127 % of control | T/C (T/C endpoint: median survival time, dose: 1.5 mg/kg/injection, schedule: Q04DX003 (ip), vehicle: Klucel (hydroxypropylcellulose) (HPC)): 133 % of control | T/C (T/C endpoint: median survival time, dose: 2.3 mg/kg/injection, schedule: Q04DX003 (ip), vehicle: Klucel (hydroxypropylcellulose) (HPC)): 137 % of control

CCOC(CN(Cc1ccc(OCc2ccccc2)c(OC)c1)S(=O)(=O)c1ccc(C)cc1)OCC
survivor count (T/C endpoint: mean survival time, dose: 400.0 mg/kg/injection, schedule: Q01DX009 (ip), vehicle: water): 5 of 6

Cc1cc(=O)n2c3c(c4c(cc13)c(CBr)cc(=O)n4C)OC2
T/C (T/C endpoint: median survival time, dose: 100.0 mg/kg/injection, schedule: Q01DX001 (ip), vehicle: Klucel (hydroxypropylcellulose) (HPC)): 135 % of control | T/C (T/C endpoint: median survival time, dose: 200.0 mg/kg/injection, schedule: Q01DX001 (ip), vehicle: Klucel (hydroxypropylcellulose) (HPC)): 135 % of control | T/C (T/C endpoint: median survival time, dose: 400.0 mg/kg/injection, schedule: Q01DX001 (ip), vehicle: Klucel (hydroxypropylcellulose) (HPC)): 125 % of control

C=C1C(=O)OC(C)(C)C1(C)C
survivor count [8]: 3 of 6 | survivor count [9]: 0 of 6

CCCCN(CCCC)P(=O)(N1CC1)N1CC1
T/C (T/C endpoint: median survival time, dose: 25.0 mg/kg/injection, schedule: Q01DX009 (ip), vehicle: saline): 142 % of control | survivor count (T/C endpoint: median survival time, dose: 50.0 mg/kg/injection, schedule: Q01DX009 (ip), vehicle: saline): 6 of 6 | survivor count [8]: 6 of 6

C=C1C(=O)OC2/C=C(\C)C3(O)OC(C)(CC(OC(=O)C(C)C)C12)CC3O (configuration not stated)
survivor count (T/C endpoint: median survival time, dose: 20.0 mg/kg/injection, schedule: Q01DX009 (ip), vehicle: saline): 3 of 6

CCOC(=O)NP(=O)(N1CC1)N1CC1
T/C (T/C endpoint: median survival time, dose: 4.8 mg/kg/injection, schedule: Q04DX003 (ip), vehicle: saline): 130 % of control | T/C (T/C endpoint: median survival time, dose: 7.2 mg/kg/injection, schedule: Q04DX003 (ip), vehicle: saline): 135 % of control | T/C (T/C endpoint: median survival time, dose: 16.0 mg/kg/injection, schedule: Q04DX003 (ip), vehicle: saline): 140 % of control | survivor count (T/C endpoint: median survival time, dose: 100.0 mg/kg/injection, schedule: Q04DX003 (ip), vehicle: saline): 4 of 6

CC(=O)Nc1ccn(C2OC(COC(C)=O)C(OC(C)=O)C2OC(C)=O)c(=O)n1 (configuration not stated)
T/C [4]: 127 % of control | T/C [7]: 127 % of control | T/C (T/C endpoint: median survival time, dose: 600.0 mg/kg/injection, schedule: Q04DX003 (ip), vehicle: saline with Tween-80): 127 and 137 % of control

CN1CCC(COC(=O)CC(C)(C)C)C1 (configuration not stated)
survivor count (T/C endpoint: median survival time, dose: 200.0 mg/kg/injection, schedule: Q01DX009 (ip), vehicle: water): 0 of 4 | survivor count (T/C endpoint: median survival time, dose: 400.0 mg/kg/injection, schedule: Q01DX009 (ip), vehicle: water): 0 of 4 | survivor count (T/C endpoint: median survival time, dose: 800.0 mg/kg/injection, schedule: Q01DX009 (ip), vehicle: water): 0 of 4 | survivor count (T/C endpoint: median survival time, dose: 1400.0 mg/kg/injection, schedule: Q01DX009 (ip), vehicle: water): 0 of 4

CN(C)Cc1c[nH]c2nccnc12
survivor count [9]: 3 of 6 | survivor count (T/C endpoint: median survival time, dose: 200.0 mg/kg/injection, schedule: Q04DX003 (ip), vehicle: saline): 4 of 6 | survivor count (T/C endpoint: median survival time, dose: 400.0 mg/kg/injection, schedule: Q04DX003 (ip), vehicle: saline): 0 of 6

O=C1C(N2CCOCC2)=C(N2CC2)C(=O)C(N2CCOCC2)=C1N1CC1
T/C (T/C endpoint: median survival time, dose: 0.75 mg/kg/injection, schedule: Q01DX009 (ip), vehicle: saline): 147 % of control

C/C=C1\C(=O)O[C@@]23C=C[C@H]4C(C(=O)OC)=CO[C@@H](O[C@H]12)[C@H]43
T/C (T/C endpoint: median survival time, dose: 1.25 mg/kg/injection, schedule: Q01DX009 (ip), vehicle: saline): 145 % of control [5 of 6 alive] | T/C (T/C endpoint: median survival time, dose: 5.0 mg/kg/injection, schedule: Q01DX009 (ip), vehicle: saline): 125 % of control | survivor count (T/C endpoint: median survival time, dose: 310.0 micrograms/kg/injection, schedule: Q01DX009 (ip), vehicle: Klucel (hydroxypropylcellulose) (HPC)): 2 of 3

O=C1C(Cl)=C(Cl)C(=O)c2ccccc21
survivor count (T/C endpoint: median survival time, dose: 50.0 mg/kg/injection, schedule: Q01DX009 (ip), vehicle: Klucel (hydroxypropylcellulose) (HPC)): 6 of 6

N#Cc1ccccc1NN=Nc1ccccc1-c1nc(N)nc(N)n1
T/C (T/C endpoint: median survival time, dose: 12.0 mg/kg/injection, schedule: Q01DX009 (ip), vehicle: other): 127 % of control | survivor count (T/C endpoint: median survival time, dose: 25.0 mg/kg/injection, schedule: Q01DX009 (ip), vehicle: Klucel (hydroxypropylcellulose) (HPC)): 5 of 6 | T/C (T/C endpoint: median survival time, dose: 25.0 mg/kg/injection, schedule: Q01DX009 (ip), vehicle: other): 127 % of control | T/C (T/C endpoint: median survival time, dose: 50.0 mg/kg/injection, schedule: Q01DX009 (ip), vehicle: other): 136 % of control | T/C [1]: 138 % of control

O=Cc1cc(O)ccc1[N+](=O)[O-]
survivor count [7]: 1 of 6

NNC(=O)CCc1ccccc1Br
T/C [6]: 145 % of control

Source: PubChem BioAssay AID328 (DTP/NCI, 2004)
